Experimental data: PubChem BioAssay AID1671190 (National Center for Advancing Translational Sciences (NCATS), 2021)
Values joined by “and” are separate entries in the source; they are usually repeats but may differ in a detail not shown here. Identical values can stand only once. Among all 580,000 compounds or so, about 6,100 (1.1%) were called active. The inconclusive results got no clear call from the source; some entries with a clear call stand among them for comparison. Calls come from the whole dose curve; as a rule, active = well fitted inhibition curve with a large enough effect; inconclusive = small, poorly fitted or top-dose-only effect, or another doubt; inactive = no such curve, though single readings can be large or run the other way. A potency beside an inconclusive call is a rough fit, not a confirmed value.

Protein sequences, listed by entry. Tags and fused reporters are not part of them.
UniProt P18054, whole entry, looked up: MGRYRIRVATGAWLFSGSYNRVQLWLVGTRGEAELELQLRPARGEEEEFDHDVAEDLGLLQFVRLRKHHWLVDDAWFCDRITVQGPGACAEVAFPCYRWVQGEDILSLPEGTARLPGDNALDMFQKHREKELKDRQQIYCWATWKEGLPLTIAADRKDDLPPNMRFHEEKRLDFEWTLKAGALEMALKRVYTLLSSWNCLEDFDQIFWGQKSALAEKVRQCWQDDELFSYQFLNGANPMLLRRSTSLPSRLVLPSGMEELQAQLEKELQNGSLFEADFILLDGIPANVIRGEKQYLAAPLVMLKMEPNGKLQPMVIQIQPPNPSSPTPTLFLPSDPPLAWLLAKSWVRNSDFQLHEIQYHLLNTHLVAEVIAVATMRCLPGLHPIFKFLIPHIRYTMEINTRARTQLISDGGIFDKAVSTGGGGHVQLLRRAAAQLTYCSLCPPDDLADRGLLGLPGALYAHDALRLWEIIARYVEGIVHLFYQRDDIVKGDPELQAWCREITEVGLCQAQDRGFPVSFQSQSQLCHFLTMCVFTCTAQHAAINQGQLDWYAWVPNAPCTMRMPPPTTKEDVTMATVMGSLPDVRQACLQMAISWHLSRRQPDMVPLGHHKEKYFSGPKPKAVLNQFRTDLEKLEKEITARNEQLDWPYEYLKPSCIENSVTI

The molecules below were run against Polyunsaturated fatty acid lipoxygenase ALOX12 (Homo sapiens) (UniProt P18054) (assay: Primary qHTS assay for inhibitors of human arachidonate 12S-lipoxygenase (ALOX12): Round 2). Details: purified 12hLO, xylenol orange hydroperoxide absorbance; activity change, negative = inhibition: at 108 µM (top of the series) unless noted.
Procedure, shortened: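 Hydroperoxide product was detected by ferrous iron/xylenol orange as the 573 to 405 nm absorbance ratio. Arachidonic acid at 40 uM (final) was turned over for 30 min at room temperature by 150 nM human 12hLO, pH 7.0 Hepes buffer, after 15 min compound preincubation.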
% is set by controls: 0 for no effect and ±100 for the full control effect; potency is the fitted concentration of half-maximal effect.

SMILES	Potency	activity change, negative = inhibition
Cc1cc(O)c(NC(=S)NC(=O)c2ccc(-c3ccc(Cl)cc3)o2)cc1C	inconclusive: 8.91 µM [inhibitor, partial curve, poor fit]	–
Cc1ccc(NC(C)c2nc3scc(-c4ccco4)c3c(=O)[nH]2)cc1C (stereo not drawn)	inconclusive: 126 µM [inhibitor, single point]	–
COc1cccc(-c2nc3n(n2)C(c2ccc4c(c2)OCO4)C(C(N)=O)=C(C)N3)c1 (stereo not drawn)	inconclusive: 44.7 µM [inhibitor, partial curve, poor fit]	–
COc1cc(/C=C(/C#N)c2nc3ccccc3[nH]2)ccc1OCCC(C)C	inconclusive: 126 µM [inhibitor, single point]	–
O=C(NCCc1c[nH]c2ccccc12)N[C@@H](Cc1ccccc1)C(=O)O	inconclusive: 31.6 µM [inhibitor, single point]	–
Nc1nccnc1C(=O)NCc1ccc(OC(F)F)cc1	–	inactive: 2.24%
O=c1c(-c2cc(F)cc(F)c2)nc2cnc(N3CCNCC3)nc2n1-c1ccccc1	inconclusive: 89.1 µM [inhibitor, single point]	–
CC(Nc1nc(=S)nc(Nc2ccc(F)cc2)[nH]1)c1ccccc1 (stereo not drawn)	inconclusive: 28.2 µM [inhibitor, partial curve, poor fit]	–
O=C(c1cccc([N+](=O)[O-])c1)N1c2ncnn2C2(CCCCC2)[C@@H]2CCCC[C@@H]21	inconclusive: 56.2 µM [inhibitor, partial curve, poor fit]	–
CCN1C(=O)[C@@H]2[C@@H](c3ccc(-c4ccc(OC)cc4)cc3)N3CCCC[C@@]3(C(=O)OC)[C@@H]2C1=O	inconclusive: 100 µM [inhibitor, single point]	–
CCN(CC)C(=S)SC(c1ccc2ccccc2c1[N+](=O)[O-])S(=O)(=O)c1ccc(C)cc1 (stereo not drawn)	–	inactive: -12.2%
COc1ccccc1-c1nc(NC2CC2)c2ccccc2n1	inconclusive: 56.2 µM [inhibitor, partial curve, poor fit]	–
Cc1ccc(S(=O)(=O)c2cnc(SCC(=O)Nc3ccc4c(c3)OCCO4)[nH]c2=O)cc1	inconclusive: 89.1 µM [inhibitor, partial curve, poor fit]	–
Cc1c(Cc2ccccc2)sc(NC(=O)Cc2ccccc2)c1C(N)=O	active: 15.8 µM	–
O=C1SC(SCc2ccccc2)=N/C1=C\c1ccco1	inconclusive: 22.4 µM [inhibitor, partial curve]	–
O=C(c1ccc(Cl)cc1)N1CCN(c2nc3ccccc3s2)CC1	inconclusive: 79.4 µM [inhibitor, partial curve, poor fit]	–
O=C(Nc1cccc(OC(F)(F)F)c1)c1cc(-c2ccc[nH]2)n[nH]1	active: 14.1 µM	–
CC(C)(C)/C(O)=C/c1nc2cc(Cl)ccc2oc1=O	inconclusive: 2.24 µM [inhibitor, partial curve, poor fit]	–
CC(C)(C)c1ccc(O)c(O)c1	active: 522 nM and active: 35.5 µM	–

SMILES	Potency	activity change, negative = inhibition
Cc1cc(-c2nc3c(c(=O)[nH]c(=O)n3Cc3ccccc3)n2CC2CCCO2)cc(C)c1O (stereo not drawn)	inconclusive: 35.5 µM [inhibitor, partial curve, poor fit]	–
Cc1cc(C)cc(NC(=S)NNC(=O)C(c2ccccc2)c2ccccc2)c1	inconclusive: 39.8 µM [inhibitor, partial curve, poor fit]	–
COc1ccc(-c2nc(C)c(C(=O)N3CCN(C(C#N)c4ccc(F)cc4)CC3)s2)cc1OC (stereo not drawn)	–	inactive: -13.3%
O=C(c1cc(F)ccc1F)N1CCCC2(C1)NC(=O)N(Cc1cccc(Cl)c1)C2=O (stereo not drawn)	inconclusive: 44.7 µM [inhibitor, partial curve, poor fit]	–
COc1ccccc1OCCNC(=O)CCC1CCN(C(=O)c2ccccc2F)CC1	–	inactive: 40.4%
C#CCSc1nsc(SCC#C)c1C#N	inconclusive: 39.8 µM [inhibitor, partial curve]	–
Cc1onc(-c2ccccc2Cl)c1C(=O)Nc1cccc(S(=O)(=O)NC2=NCCC2)c1	inconclusive: 89.1 µM [inhibitor, single point]	–
O=C(OCc1ccc(-c2ccccc2)cc1)c1cccc(O)c1	inconclusive: 70.8 µM [inhibitor, partial curve, poor fit]	–
COC(=O)C1=C(C)NC2=C(C(=O)CCC2)C1c1coc2ccccc2c1=O (stereo not drawn)	inconclusive: 1.58 µM [inhibitor, partial curve, poor fit]	–
CC(C)(C)c1cc(C(F)(F)F)c(C#N)c(=O)[nH]1	inconclusive: 35.5 µM [inhibitor, single point]	–
CN1C(=O)C(CC(=O)NCCc2ccccc2)N(NC(=O)c2ccc(Cl)cc2)C1=S (stereo not drawn)	inconclusive: 14.1 µM [inhibitor, partial curve, poor fit]	–
CC(C)CN(CC(C)C)C(=O)CC(=O)NC(=O)c1ccc(Cl)cc1	inconclusive: 28.2 µM [inhibitor, partial curve, poor fit]	–
Cc1cc(C(=O)CSc2nnnn2C2CC2)c(C)n1Cc1ccco1	inconclusive: 100 µM [inhibitor, partial curve, poor fit]	–
Cc1nc(NC(=O)c2ccccc2)nc2cc3c(cc12)OCO3	inconclusive: 1.12 µM [inhibitor, full curve, poor fit]	–
Cc1ccc(S(=O)(=O)N2CCN(c3ccc([N+](=O)[O-])cn3)CC2)cc1	inconclusive: 100 µM [inhibitor, single point]	–
Cc1ccc([N+](=O)[O-])cc1NC(=S)NC(=O)C(C)(C)C	inconclusive: 39.8 µM [inhibitor, partial curve]	–
O=C(CCc1nc2ccccc2[nH]c1=O)N1CCN(CCn2cncn2)CC1	inconclusive: 28.2 µM [inhibitor, single point]	–
COc1ccc(/C=N/NC(=S)N[C@H]2CC3CCC2C3)cc1 (stereo partly drawn)	active: 10 µM	–
Cc1ccc(S(=O)(=O)N2CCN(C(=O)COC(=O)CCOc3cc(C)ccc3C)CC2)cc1	inconclusive: 7.08 µM [inhibitor, full curve, poor fit]	–
